Laboratory results from paper PMC4489720.

Legend:
[1] = target: recombinant full-length VAR2CSA-type PfEMP1 IT4VAR04 (FV2) (P. falciparum IT4); experiment: ELISA; MaxiSorp plates coated with recombinant PfEMP1 constructs (18 nM, overnight, 4°C); blocked in TSM buffer with 1% Ig-free BSA; α2M or α2M-MA (10 nM; titrated in Fig 2A); detected with anti-α2M antibodies; both purified
[2] = target: PfEMP1 protein HB3VAR03 on infected erythrocytes (P. falciparum HB3); experiment: flow cytometry on cells; late-stage infected erythrocytes (1x10^5) incubated 30 min at room temperature with α2M or α2M-MA (10 nM; titrated in Fig 2B) or IgM; detected with anti-α2M or anti-human IgM antibodies; in competition assays α2M and IgM added in separate steps; only the binder purified
[3] = target: PfEMP1 protein IT4VAR09 on infected erythrocytes (P. falciparum IT4); experiment: as above

Measured: binding

B1: α2-macroglobulin (α2M), native (protein, UniProt P01023 24-1474)
chain: SVSGKPQYMVLVPSLLHTETTEKGCVLLSYLNETVTVSASLESVRGNRSLFTDLEAENDVLHCVAFAVPKSSSNEEVMFLTVQVKGPTQEFKKRTTVMVKNEDSLVFVQTDKSIYKPGQTVKFRVVSMDENFHPLNELIPLVYIQDPKGNRIAQWQSFQLEGGLKQFSFPLSSEPFQGSYKVVVQKKSGGRTEHPFTVEEFVLPKFEVQVTVPKIITILEEEMNVSVCGLYTYGKPVPGHVTVSICRKYSDASDCHGEDSQAFCEKFSGQLNSHGCFYQQVKTKVFQLKRKEYEMKLHTEAQIQEEGTVVELTGRQSSEITRTITKLSFVKVDSHFRQGIPFFGQVRLVDGKGVPIPNKVIFIRGNEANYYSNATTDEHGLVQFSINTTNVMGTSLTVRVNYKDRSPCYGYQWVSEEHEEAHHTAYLVFSPSKSFVHLEPMSHELPCGHTQTVQAHYILNGGTLLGLKKLSFYYLIMAKGGIVRTGTHGLLVKQEDMKGHFSISIPVKSDIAPVARLLIYAVLPTGDVIGDSAKYDVENCLANKVDLSFSPSQSLPASHAHLRVTAAPQSVCALRAVDQSVLLMKPDAELSASSVYNLLPEKDLTGFPGPLNDQDNEDCINRHNVYINGITYTPVSSTNEKDMYSFLEDMGLKAFTNSKIRKPKMCPQLQQYEMHGPEGLRVGFYESDVMGRGHARLVHVEEPHTETVRKYFPETWIWDLVVVNSAGVAEVGVTVPDTITEWKAGAFCLSEDAGLGISSTASLRAFQPFFVELTMPYSVIRGEAFTLKATVLNYLPKCIRVSVQLEASPAFLAVPVEKEQAPHCICANGRQTVSWAVTPKSLGNVNFTVSAEALESQELCGTEVPSVPEHGRKDTVIKPLLVEPEGLEKETTFNSLLCPSGGEVSEELSLKLPPNVVEESARASVSVLGDILGSAMQNTQNLLQMPYGCGEQNMVLFAPNIYVLDYLNETQQLTPEIKSKAIGYLNTGYQRQLNYKHYDGSYSTFGERYGRNQGNTWLTAFVLKTFAQARAYIFIDEAHITQALIWLSQRQKDNGCFRSSGSLLNNAIKGGVEDEVTLSAYITIALLEIPLTVTHPVVRNALFCLESAWKTAQEGDHGSHVYTKALLAYAFALAGNQDKRKEVLKSLNEEAVKKDNSVHWERPQKPKAPVGHFYEPQAPSAEVEMTSYVLLAYLTAQPAPTSEDLTSATNIVKWITKQQNAQGGFSSTQDTVVALHALSKYGAATFTRTGKAAQVTIQSSGTFSSKFQVDNNNRLLLQQVSLPELPGEYSMKVTGEGCVYLQTSLKYNILPEKEEFPFALGVQTLPQTCDEPKAHTSFQISLSVSYTGSRSASNMAIVDVKMVSGFIPLKPTVKMLERSNHVSRTEVSSNHVLIYLDKVSNQTLSLFFTVLQDVPVRDLKPAIVKVYDYYETDEFAIAEYNAPCSKDLGNA
no binding (tested: 10 nM): all assays above

No constants are given. Whether binding was seen depends on the method and setting.
